Assay results: PubChem BioAssay AID1439 (NMMLSC, 2008)
The whole screen tested about 220,000 compounds, of which about 770 (0.35%) were called active. Inconclusive means that the source gave no clear call. Such entries were picked first, then a sample of the others. Cut-off read from the data, not from the text of the source: active = binding response below about 49% or above about 150%; inconclusive = no clear call, values can overlap the other calls; inactive = in between.

Amino acid sequences for entries named in this document (tags omitted).
UniProt P09471, whole entry, looked up: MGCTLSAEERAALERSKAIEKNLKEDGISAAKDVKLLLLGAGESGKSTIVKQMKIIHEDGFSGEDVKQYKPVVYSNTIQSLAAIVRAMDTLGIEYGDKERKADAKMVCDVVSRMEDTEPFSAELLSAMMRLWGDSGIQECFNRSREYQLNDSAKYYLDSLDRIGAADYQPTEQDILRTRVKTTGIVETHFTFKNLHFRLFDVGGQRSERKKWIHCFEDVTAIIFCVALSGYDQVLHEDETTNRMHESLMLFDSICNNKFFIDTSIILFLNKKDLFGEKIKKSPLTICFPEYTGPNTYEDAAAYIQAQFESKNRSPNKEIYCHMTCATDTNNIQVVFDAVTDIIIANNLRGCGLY

Target: Guanine nucleotide-binding protein G(o) subunit alpha (Homo sapiens) (UniProt P09471)
Assay: RGS7-Galphao binding modulators, primary screen, biochemical, multiplexed bead flow cytometry (AID 1439);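 note: fluorescent Galphao held in activated GDP-AlF4 state binding bead-coupled RGS7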
Settings: at 10 µM, actives lie on both sides

Compound | binding response (% of control)
O=C/C(=C\Nc1ccc(S(=O)(=O)CCO)cc1)c1nc2cc(Cl)ccc2o1 | inconclusive: 93.8%
Cc1cc(C)n2c(SCCC(C)C)nnc2n1 | inactive: 107%
CCOc1[nH]n(-c2ccc(Cl)cc2)c(=O)c1C=NCc1cccnc1 | inconclusive: 90.6%
Cc1ccc2occ(/C=N/NC(=O)[C@@H](N)Cc3ccccc3)c(=O)c2c1 | inconclusive: 103%
Cc1ccccc1Cc1ccc(Cl)nn1 | inconclusive: 84%
Cc1cnc(C(=O)N2CCN(c3ccc(C(F)(F)F)cn3)CC2)cn1 | inconclusive: 93.2%
CCC(C)N1C(=O)CN(C2CCCCCC2)C(=O)C1c1ccccc1F (stereo not given) | inactive: 109%
CC(=O)Nc1ccc(-c2ccc(NC(C)=O)c(O)c2)cc1O | inconclusive: 127%
O=c1ccc(NS(=O)(=O)c2ccccc2Cl)cn1Cc1ccc(Cl)c(Cl)c1 | inconclusive: 111%
CN1CCCC(OC(=O)c2cc(Cl)ccc2Cl)C1 (stereo not given) | inactive: 100%
Cc1nc2c(=O)n(-c3ccc(F)c(Cl)c3)nc(C)c2s1 | inconclusive: 166%
CC(=O)Nc1sc(N/N=C/c2ccc(C)cc2)nc1-c1ccc(C)cc1 | inconclusive: 94.3%
CCN(CC)S(=O)(=O)c1cccc(NC(=O)COC(=O)C2CC3C=CC2C3)c1 (stereo not given) | inconclusive: 107%
CC(C)(C)Sc1ccccc1S(=O)(=O)C(C)(C)C | inconclusive: -158%
N#CC1=C2N=C(N)c3ccccc3N2C2=C(C(=O)CCC2)C1c1ccccc1F (stereo not given) | inconclusive: 105%
COc1ccc(CC(=O)N/N=C(\C)c2ccccn2)cc1 | inactive: 93.4%
CCOC(=O)c1c(-c2ccc(Cl)cc2)csc1NC(=O)CNCc1ccco1 | inconclusive: 106%
CCCn1nc(C(=O)Nc2ccc(S(=O)(=O)Nc3ncccn3)cc2)c2ccccc2c1=O | inconclusive: 124%
CC(C)(C)N1CCC1C(N)=O (stereo not given) | inconclusive: 47.7%
Cc1cccc(N2CCN(C(=O)CN3C(=O)NC(C)(C)C3=O)CC2)c1C | inconclusive: 85.7%
Cc1ccccc1-c1nnc(SCC(=O)N(CC(C)C)c2c(N)n(CC(C)C)c(=O)[nH]c2=O)n1C | inconclusive: 125%
O=[N+]([O-])c1ccc2c(c1)N([O-])C1(CCCCC1)[N+]2=O | inconclusive: 29.2%
CCN(c1ccccc1)c1nc(C#N)nc(N(CC)c2ccccc2)n1 | inconclusive: 117%

Compound | binding response (% of control)
CCN1Cc2c(/C=C/c3ccccc3)nc3ccc(OC)cc3c2N(c2cccc(Cl)c2)C1 | inconclusive: 64.6%
FC(F)(F)c1ccc(CSc2ccccn2)cc1 | inconclusive: 81.6%
COc1cc(OC)c(S(=O)(=O)NC(C)C)cc1C(=O)O | inconclusive: 221%
CCc1ccc(/C=N/n2c(C)cc(C)c(C#N)c2=O)cc1 | inactive: 102%
NS(=O)(=O)c1cccc(NC(=O)CSc2nc3nc(-c4cccs4)cc(C(F)(F)F)c3c(=O)[nH]2)c1 | inconclusive: 99.1%
Nn1c(SCc2cn3ccsc3n2)nnc1-c1ccncc1 | inactive: 106%
Cc1ccc(N2C(=O)c3ccccc3C2C(=O)c2ccc(C)c(C)c2O)cc1 (stereo not given) | inconclusive: 128%
O=C(COC(=O)CCc1ccccc1)Nc1cc(S(=O)(=O)N2CCOCC2)ccc1N1CCCC1 | inconclusive: 99.2%
Cc1cc(C)c(-n2nnnc2SCC(=O)c2cccs2)c(C)c1 | inconclusive: 134%
CCNC(=S)N/N=C/c1cccs1 | inactive: 96.2%
Cc1ccc(-n2[nH]c(C)c(C=NCc3ccncc3)c2=O)cc1 | inconclusive: 130%
CCCn1c(SCC(=O)NCCc2ccc(OC)c(OC)c2)nc2c1c(=O)n(C)c(=O)n2C | inactive: 101%
N=c1n(CC(=O)c2ccc(Br)s2)c2ccccc2n1Cc1ccccc1 | inconclusive: 83.6%
COc1ccc(NC(=O)c2c(C)noc2-c2snnc2C)cc1 | inconclusive: 84%
Cc1ccc(NC(=O)C2CC(=O)Nc3nncn32)cc1 (stereo not given) | inactive: 97.2%
COc1ccc(/C=N/Nc2nc(=O)[nH]nc2C)cc1OC | inconclusive: 98.5%
Cc1cc(C(=O)CSC(C)c2nc3ccccc3c(=O)[nH]2)c(C)n1C (stereo not given) | inactive: 107%
Cc1cc(=O)oc2cc(NC(=O)CC3(CC(=O)O)CCCC3)ccc12 | inconclusive: 121%
CC(C)N1C(=O)CCC1C(=O)O (stereo not given) | inactive: 110%
O=c1c(-c2ccccc2)c1-c1ccccc1 | inactive: 103%
COC(=O)c1ccccc1N=Nc1c(C)n[nH]c1C | inconclusive: 96%
CCN(CC)CCN1C(=O)c2ccccc2NC1c1ccccc1F (stereo not given) | inactive: 89.9%
O=C1CCCC(O)=C1Sc1ccccc1C(=O)O | inconclusive: 101%

Compound | binding response (% of control)
O=C1c2cc(Cl)ccc2OC2(CCNCC2)C12CC(c1ccccc1)=NO2 (stereo not given) | inconclusive: 72.8%
Cc1ccc(NC(=O)CN2CCCCC2)c2c1CC(C)(C)O2 | inactive: 103%
Cc1cc2c(cc1C)CN(c1ccccc1)C2 | inconclusive: 63.4%
O=C(CNc1cc(S(=O)(=O)N2CCCC2)ccc1OCC(F)(F)F)Nc1cc(Cl)cc(Cl)c1 | inconclusive: 127%
CC(C)(C)C1CCC(C(=O)OCC(=O)N2CCN(C(=O)c3ccco3)CC2)CC1 (stereo not given) | inconclusive: 106%
NS(=O)(=O)c1ccc(NC(=O)CN2C(=O)c3ccccc3C2=O)cc1 | inconclusive: 107%
CCOC(=O)C/C(N)=N/N(C)c1ncc(C(F)(F)F)cc1Cl | inactive: 100%
CC(=O)Nc1ccc(NS(=O)(=O)c2cc(Cl)ccc2Cl)cc1 | inconclusive: 118%
CC1(CC(=O)N/N=C/c2ccc(-c3cccc(C(F)(F)F)c3)o2)OCCO1 | active: 262% [activator]
CCCCCCNC(=O)CCCCCNS(=O)(=O)c1ccc(OC)cc1 | inactive: 102%
CC(C)C1N(C(N)=S)N=CC1(C)C (stereo not given) | inconclusive: -227%
O=C(Cc1ccccc1[N+](=O)[O-])NCc1ccc(Cl)cc1Cl | inactive: 103%
C/C=C\C=C/C(=O)Nc1cccc(C2=NOC3(C2)C[C@H](C(N)=O)N(C(=O)c2ccc(OC)cc2)C3)c1 (stereo not given in full) | inconclusive: 78.8%
Cc1cc(C[n+]2cc(Cl)ccc2N)c2ncccc2c1 | inconclusive: 96.8%
COc1ccc2[nH]c3c(=O)n(CCc4ccccc4)cnc3c2c1 | inconclusive: 104%
O=C(N/N=C1\C2CN3CCN(C2)CC1(c1ccccc1)C3)Nc1ccccc1 | inconclusive: 99.2%
Cc1cc(C2=NNC(=NCCc3ccccc3)SC2)c(C)n1-c1c(C)n(C)n(-c2ccccc2)c1=O | inconclusive: 73.4%
CCCCNC(=S)N/N=C/c1ccc(OCC(=O)Nc2c(C)cc(C)cc2C)c(OC)c1 | inactive: 99.1%
Fc1ccc(-c2cc(C(F)(F)F)nc(-n3cccn3)n2)cc1 | inconclusive: 102%
Cc1nc(-c2ccccn2)nc(SCC(=O)c2ccc(F)cc2)c1Cl | inconclusive: 113%
CCC(C(=O)O)N1C(=O)/C(=C/C(C)=C/c2ccccc2)SC1=S (stereo not given) | inconclusive: 633%
Cn1nc(C(=O)Oc2cc(=O)n(C)c3ccccc23)c2ccccc2c1=O | inconclusive: 160%
COc1ccc(N=Nc2n(C)c3ccccc3[n+]2C)cc1 | inconclusive: 87.4%

Compound | binding response (% of control)
CCOC(=O)C1=C(C)NC(=O)NC1c1ccc(-c2ccc(Cl)cc2)o1 (stereo not given) | inconclusive: 103%
Cc1cccc(N2CN=c3s/c(=C\c4ccccn4)c(=O)n3C2)c1 | inconclusive: -11%
Cn1ncc2c(Nc3ccc([N+](=O)[O-])cc3)nc(Cl)nc21 | inconclusive: 65%
COc1cc(OC)c2c(-c3ccccc3)cc(=O)oc2c1C(CCN1CCCC1)c1ccc2c(c1)OCO2 (stereo not given) | inconclusive: 86.5%
O=c1[nH]c2c(c(=O)[nH]1)CCC2 | inconclusive: 91.3%
O=C(c1cnc2sccn2c1=O)N1CCN(c2ccccc2Cl)CC1 | inconclusive: 100%
COC(=O)c1csc2c(C(F)(F)F)cc(N3CCN(C(=O)Nc4ccccc4)CC3)nc12 | inconclusive: 92.5%
COCCCn1c(C)cc(C(=O)COC(=O)CCc2nc3ccccc3c(=O)[nH]2)c1C | inconclusive: 117%
C[C@@H](CO)NC(=O)c1ccc2c3n(nc2c1)-c1ccccc1CO3 | inconclusive: 50.5%
COc1ccc(C(=O)CC2SC(N)=NC2=O)cc1 (stereo not given) | inconclusive: 95.4%
CC1CCN(S(=O)(=O)c2ccc3ncn(CC(=O)N4CCN(C)CC4)c(=O)c3c2)CC1 | inactive: 90.3%
CCOC(=O)c1ccc2c(c1)N(CC#N)C(=O)C(C)(C)O2 | inactive: 86.7%
O=C(CNC(=O)c1ccc(Cl)cc1)Nc1ccc(S(=O)(=O)Nc2ncccn2)cc1 | inconclusive: 107%
COc1ccc(-n2c(COc3cccc4cccnc34)nnc2SCC(=O)O)cc1 | inactive: 99.4%
CCc1noc(C)c1C(=O)Nc1nc(-c2ccc(Cl)cc2Cl)cs1 | inactive: 101%
COc1ccc(N2Cc3ccccc3C2=NC(=O)c2cncc(Br)c2)cc1 | inconclusive: 98.8%
CCOc1ccc(S(=O)(=O)N/N=C(\C)Cc2ccc(OC)cc2)cc1 | inconclusive: 105%
CC(=O)c1ccc(N2CCN(C(=O)c3ccc4ccccc4n3)CC2)cc1 | inconclusive: 85.5%
O=C(CCc1nc2ccccc2s1)NC1CCOC1=O (stereo not given) | inconclusive: 455%
CCOC(=O)c1ccccc1NC(=O)CN(c1ccc(OCC)cc1)S(C)(=O)=O | inactive: 93.1%
CCOC(=O)c1c(NC(=S)N2CCCCC2)sc2c1CCN(C(=O)OCC)C2 | inconclusive: -523%

Random excerpt: 6 compounds from above
Compound | binding response (% of control)
COCCCn1c(C)cc(C(=O)COC(=O)CCc2nc3ccccc3c(=O)[nH]2)c1C | inconclusive: 117%
CC1CCN(S(=O)(=O)c2ccc3ncn(CC(=O)N4CCN(C)CC4)c(=O)c3c2)CC1 | inactive: 90.3%
C[C@@H](CO)NC(=O)c1ccc2c3n(nc2c1)-c1ccccc1CO3 | inconclusive: 50.5%
CCOC(=O)c1ccc2c(c1)N(CC#N)C(=O)C(C)(C)O2 | inactive: 86.7%
Cn1ncc2c(Nc3ccc([N+](=O)[O-])cc3)nc(Cl)nc21 | inconclusive: 65%
COc1ccc(C(=O)CC2SC(N)=NC2=O)cc1 (stereo not given) | inconclusive: 95.4%
